# Measured values taken from the supplement of paper PMC8728848.
# This is one part of the list.
# B1: LlpA (Burkholderia cenocepacia) (protein)
# chain: MGSSHHHHHHSSGLVPRGSHKILGSNETLSAGNVVYSDNGQYHLAMQTDGNLVVYGPTGAVWQSQTSGSGGNRAVMQGDGNLVIYRADNTAAWSSKTAHPGAFLAVQDDGNVVIYWPRPAWASNTSDPATQQSAESKYLASGSTMSAGQTVTVAQYMLVFQADGNLVLYKNGGNPIWSTGTQGKGATYAVMQSDGNFVIYAGSTALWSTKTNGANGAQLVLQSDGNLVIYAPTAAWSTKFGLVTAPTSTSTSNNGPGSGICVGVCPPHPLNGNPFSPVGVGTTGLGFPTPGYPGAAF
# Legend:
# Experiment in all cases: glycan array binding signal (z-score within array); higher = stronger binding
# Settings in all cases: glycan notation: IUPAC condensed, linker removed
# GlcNAc(b1-3)GalNAc = molecular target: GlcNAc(b1-3)GalNAc
# How it was run: (§1)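 Glycan array binding is given as a within-array Z-score, which can be read as non-binding when negative. The arrays, 3228 of them, came from the Consortium for Functional Glycomics database and were retained only where the protein sequence was available. Z-scores were averaged across arrays of the same protein sequence at different concentrations or buffers and across linkers.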
# GlcNAc(b1-3)Man = molecular target: GlcNAc(b1-3)Man
# How it was run: as §1
# [1] = molecular target: GlcNAc(b1-3)[GlcNAc(b1-4)][GlcNAc(b1-6)]GlcNAc
# How it was run: as §1
# [2] = molecular target: GlcNAc(b1-3)[GlcNAc(b1-6)]Gal(b1-4)GlcNAc
# How it was run: as §1
# [3] = molecular target: GlcNAc(b1-3)[GlcNAc(b1-6)]GalNAc
# How it was run: as §1
# [4] = molecular target: GlcNAc(b1-4)Gal(b1-4)GlcNAc
# How it was run: as §1
# GlcNAc(b1-4)GlcNAc = molecular target: GlcNAc(b1-4)GlcNAc
# How it was run: as §1
# [5] = molecular target: GlcNAc(b1-4)GlcNAc(b1-4)GlcNAc
# How it was run: as §1
# [6] = molecular target: GlcNAc(b1-4)GlcNAc(b1-4)GlcNAc(b1-4)GlcNAc(b1-4)GlcNAc
# How it was run: as §1
# [7] = molecular target: GlcNAc(b1-4)GlcNAc(b1-4)GlcNAc(b1-4)GlcNAc(b1-4)GlcNAc(b1-4)GlcNAc
# How it was run: as §1
# [8] = molecular target: GlcNAc(b1-4)[GlcNAc(b1-6)]GalNAc
# How it was run: as §1
# [9] = molecular target: GlcNAc(b1-6)Gal(b1-4)GlcNAc
# How it was run: as §1
# GlcNAc(b1-6)GalNAc = molecular target: GlcNAc(b1-6)GalNAc
# How it was run: as §1
# [10] = molecular target: GlcNAc6S(b1-3)Gal(b1-4)GlcNAc
# How it was run: as §1
# Kdn(a2-3)Gal(b1-3)GalNAc = molecular target: Kdn(a2-3)Gal(b1-3)GalNAc
# How it was run: as §1
# Kdn(a2-3)Gal(b1-3)GlcNAc = molecular target: Kdn(a2-3)Gal(b1-3)GlcNAc
# How it was run: as §1
# Kdn(a2-3)Gal(b1-4)Glc = molecular target: Kdn(a2-3)Gal(b1-4)Glc
# How it was run: as §1
# Kdn(a2-3)Gal(b1-4)GlcNAc = molecular target: Kdn(a2-3)Gal(b1-4)GlcNAc
# How it was run: as §1
# [11] = molecular target: Kdn(a2-3)Gal(b1-4)[Fuc(a1-3)]GlcNAc
# How it was run: as §1
# Kdn(a2-6)Gal(b1-4)GlcNAc = molecular target: Kdn(a2-6)Gal(b1-4)GlcNAc
# How it was run: as §1
# [12] = molecular target: Man(a1-2)Man(a1-2)Man(a1-3)Man
# How it was run: as §1
# [13] = molecular target: Man(a1-2)Man(a1-2)Man(a1-6)[Man(a1-3)]Man
# How it was run: as §1
# Man(a1-2)Man(a1-3)Man = molecular target: Man(a1-2)Man(a1-3)Man
# How it was run: as §1
# [14] = molecular target: Man(a1-2)Man(a1-3)[Man(a1-2)Man(a1-6)]Man
# How it was run: as §1
# [15] = molecular target: Man(a1-2)Man(a1-3)[Man(a1-2)Man(a1-6)]Man(a1-6)[Man(a1-2)Man(a1-2)Man(a1-3)]Man
# How it was run: as §1
# [16] = molecular target: Man(a1-2)Man(a1-3)[Man(a1-2)Man(a1-6)]Man(a1-6)[Man(a1-2)Man(a1-2)Man(a1-3)]Man(b1-4)GlcNAc(b1-4)GlcNAc
# How it was run: as §1
# [17] = molecular target: Man(a1-2)Man(a1-3)[Man(a1-6)]Man(a1-6)[Man(a1-2)Man(a1-3)]Man(b1-4)GlcNAc(b1-4)GlcNAc
# How it was run: as §1
# [18] = molecular target: Man(a1-2)Man(a1-6)[Man(a1-3)]Man(a1-6)[Man(a1-2)Man(a1-2)Man(a1-3)]Man
# How it was run: as §1
# [19] = molecular target: Man(a1-2)Man(a1-6)[Man(a1-3)]Man(a1-6)[Man(a1-2)Man(a1-2)Man(a1-3)]Man(b1-4)GlcNAc(b1-4)GlcNAc
# How it was run: as §1
# Man(a1-3)[Man(a1-6)]Man = molecular target: Man(a1-3)[Man(a1-6)]Man
# How it was run: as §1
# [20] = molecular target: Man(a1-3)[Man(a1-6)]Man(a1-6)[Man(a1-2)Man(a1-3)]Man(b1-4)GlcNAc(b1-4)GlcNAc
# How it was run: as §1
# [21] = molecular target: Man(a1-3)[Man(a1-6)]Man(a1-6)[Man(a1-3)]Man
# How it was run: as §1
# [22] = molecular target: Man(a1-3)[Man(a1-6)]Man(a1-6)[Man(a1-3)]Man(b1-4)GlcNAc(b1-4)GlcNAc
# How it was run: as §1
# [23] = molecular target: Man(a1-3)[Man(a1-6)]Man(b1-4)GlcNAc(b1-4)GlcNAc
# How it was run: as §1
# [24] = molecular target: Man(a1-3)[Man(a1-6)]Man(b1-4)GlcNAc(b1-4)[Fuc(a1-6)]GlcNAc
# How it was run: as §1
# Man(a1-6)Man = molecular target: Man(a1-6)Man
# How it was run: as §1
# Man(b1-4)GlcNAc = molecular target: Man(b1-4)GlcNAc
# How it was run: as §1
# MurNAc(b1-4)GlcNAc = molecular target: MurNAc(b1-4)GlcNAc
# How it was run: as §1
binder,measurement,setting,value
B1,glycan array binding signal (z-score),GlcNAc(b1-3)GalNAc,-0.813
same,glycan array binding signal (z-score),GlcNAc(b1-3)Man,0.552
same,glycan array binding signal (z-score),[1],-0.705
same,glycan array binding signal (z-score),[2],0.383
same,glycan array binding signal (z-score),[3],0.522
same,glycan array binding signal (z-score),[4],-0.157
same,glycan array binding signal (z-score),GlcNAc(b1-4)GlcNAc,-0.529
same,glycan array binding signal (z-score),[5],-0.574
same,glycan array binding signal (z-score),[6],0.226
same,glycan array binding signal (z-score),[7],-1.09
same,glycan array binding signal (z-score),[8],-0.234
same,glycan array binding signal (z-score),[9],-0.977
same,glycan array binding signal (z-score),GlcNAc(b1-6)GalNAc,-0.002
same,glycan array binding signal (z-score),[10],-0.237
same,glycan array binding signal (z-score),Kdn(a2-3)Gal(b1-3)GalNAc,-0.002
same,glycan array binding signal (z-score),Kdn(a2-3)Gal(b1-3)GlcNAc,0.512
same,glycan array binding signal (z-score),Kdn(a2-3)Gal(b1-4)Glc,-1.09
same,glycan array binding signal (z-score),Kdn(a2-3)Gal(b1-4)GlcNAc,-0.006
same,glycan array binding signal (z-score),[11],-0.935
same,glycan array binding signal (z-score),Kdn(a2-6)Gal(b1-4)GlcNAc,-0.235
same,glycan array binding signal (z-score),[12],-0.322
same,glycan array binding signal (z-score),[13],-0.239
same,glycan array binding signal (z-score),Man(a1-2)Man(a1-3)Man,-1.07
same,glycan array binding signal (z-score),[14],-0.276
same,glycan array binding signal (z-score),[15],0.07
same,glycan array binding signal (z-score),[16],-0.406
same,glycan array binding signal (z-score),[17],-1.08
same,glycan array binding signal (z-score),[18],-0.809
same,glycan array binding signal (z-score),[19],0.303
same,glycan array binding signal (z-score),Man(a1-3)[Man(a1-6)]Man,0.937
same,glycan array binding signal (z-score),[20],-0.282
same,glycan array binding signal (z-score),[21],0.03
same,glycan array binding signal (z-score),[22],0.539
same,glycan array binding signal (z-score),[23],-0.516
same,glycan array binding signal (z-score),[24],0.157
same,glycan array binding signal (z-score),Man(a1-6)Man,-0.739
same,glycan array binding signal (z-score),Man(b1-4)GlcNAc,1.28
same,glycan array binding signal (z-score),MurNAc(b1-4)GlcNAc,-0.491

# Part of the list above, reformatted.
binder	measurement	setting	value
B1	glycan array binding signal (z-score)	Kdn(a2-3)Gal(b1-4)GlcNAc	-0.006
same	glycan array binding signal (z-score)	Kdn(a2-6)Gal(b1-4)GlcNAc	-0.235
